Reference: the supplement of paper PMC4604168 (melanoma cell lines)
The other results are listed elsewhere or left out. Single values are uncertain, as repeats are few or missing.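 The apoptosis fraction was the count of cleaved-PARP antibody-stained nuclei relative to all DNA-stained nuclei, imaged in 1,536-well plates. Screening doses were set so most cells survived, and baseline and induced cleaved-PARP levels vary greatly across cell lines.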

What was measured:
Assay in all cases: cleaved PARP positive nuclei fraction relative to DMSO control; melanoma cells; higher = more apoptosis
Conditions in all cases: library dose: low library concentration; 72 h
501Mel = system: 501Mel
A101D = system: A101D
A2058 = system: A2058
C32 = system: C32
CBRC008 = system: CBRC008 (line from a melanoma biopsy)
CBRC014 = system: CBRC014 (line from a melanoma biopsy)
CBRC016 = system: CBRC016 (line from a melanoma biopsy)
CBRC017 = system: CBRC017 (line from a melanoma biopsy)
COLO792 = system: COLO792
COLO800 = system: COLO800
COLO829 = system: COLO829
G361 = system: G361
IPC-298 = system: IPC-298
IST-MEL1 = system: IST-MEL1
LB2518-MEL = system: LB2518-MEL
LOXIMVI = system: LOXIMVI
A375 = system: A375
CBRC013 = system: CBRC013 (line from a melanoma biopsy)
CBRC034 = system: CBRC034 (line from a melanoma biopsy)
MEL-HO = system: MEL-HO

Row | Structure (SMILES) | cleaved PARP positive nuclei fraction (501Mel) [%] | cleaved PARP positive nuclei fraction (A101D) [%] | cleaved PARP positive nuclei fraction (A2058) [%] | cleaved PARP positive nuclei fraction (C32) [%] | cleaved PARP positive nuclei fraction (CBRC008) [%] | cleaved PARP positive nuclei fraction (CBRC014) [%] | cleaved PARP positive nuclei fraction (CBRC016) [%] | cleaved PARP positive nuclei fraction (CBRC017) [%] | cleaved PARP positive nuclei fraction (COLO792) [%] | cleaved PARP positive nuclei fraction (COLO800) [%] | cleaved PARP positive nuclei fraction (COLO829) [%] | cleaved PARP positive nuclei fraction (G361) [%] | cleaved PARP positive nuclei fraction (IPC-298) [%] | cleaved PARP positive nuclei fraction (IST-MEL1) [%] | cleaved PARP positive nuclei fraction (LB2518-MEL) [%] | cleaved PARP positive nuclei fraction (LOXIMVI) [%] | cleaved PARP positive nuclei fraction (A375) [%] | cleaved PARP positive nuclei fraction (CBRC013) [%] | cleaved PARP positive nuclei fraction (CBRC034) [%] | cleaved PARP positive nuclei fraction (MEL-HO) [%]
1 | CC(=O)c1c(C)c2cnc(Nc3ccc(N4CCNCC4)cn3)nc2n(C2CCCC2)c1=O [palbociclib] + COc1cc2ncnc(Nc3ccc(Oc4ccccc4)cc3)c2cc1OC [SrcI1] (first compound 0.04 µM, partner dose 2 µM) | 135 | 38.1 | 95.8 | 50.1 | 56 | 107 | 55.2 | 87 | 210 | 85 | 184 | 31.3 | 58.6 | 63.2 | 70.3 | 265 | – | – | – | –
2 | C=CCNC1=C2C[C@@H](C)C[C@H](OC)[C@H](O)[C@@H](C)/C=C(\C)[C@H](OC(N)=O)[C@@H](OC)/C=C\C=C(/C)C(=O)NC(=CC1=O)C2=O [Tanespimycin] + CCCCCCCCCCCC1=C(O)C(=O)C=C(O)C1=O [Embelin] (first compound 0.002 µM, partner dose 1.2 µM) | 139 | 27.3 | 30.2 | 40.1 | 27.5 | 90 | 68.2 | 106 | 88.7 | 30.7 | 80.4 | 57.2 | 130 | 154 | 69.9 | 60.6 | – | – | – | –
3 | C=CCNC1=C2C[C@@H](C)C[C@H](OC)[C@H](O)[C@@H](C)/C=C(\C)[C@H](OC(N)=O)[C@@H](OC)/C=C\C=C(/C)C(=O)NC(=CC1=O)C2=O [Tanespimycin] + O=C(O)C(=O)Nc1sc2c(c1C(=O)O)CCNC2 [TCS401] (first compound 0.002 µM, partner dose 1.66667 µM) | 149 | 46.5 | 301 | 85.7 | 356 | 101 | 245 | 98.8 | 79.8 | 33.5 | 90.4 | 87 | 123 | 124 | 94.4 | 55.7 | – | – | – | –
4 | OCc1c[nH]c2ccccc12 [Indole-3-carbinol] + O=c1cc(-c2cccc3c2Sc2ccccc2S3)oc(N2CCOCC2)c1 [KU55933] (first compound 0.8 µM, partner dose 1 µM) | 134 | 19.9 | 31.9 | 31 | 44.3 | 43.6 | 98.3 | 92.2 | 104 | 194 | 23 | 145 | 28 | 127 | 33.3 | 87 | – | – | – | –
5 | Clc1ccc(Nc2nnc(Cc3ccncc3)c3ccccc23)cc1 [vatalanib] + c1cc(-c2cnn3cc(-c4ccc(OCCN5CCCCC5)cc4)cnc23)ccn1 [Dorsomorphin] (first compound 2 µM, partner dose 0.4 µM) | 37.6 | 68.7 | 126 | 74.4 | 22.2 | 157 | 87.6 | 98.4 | 99.7 | 91.3 | 113 | 144 | 84.8 | 44.9 | 84.3 | 34.4 | – | – | – | –
6 | Cn1nnc2c(C(N)=O)ncn2c1=O [temozolomide] + Cc1cc([N+](=O)[O-])ccc1NS(=O)(=O)c1cc(Cl)ccc1Cl [FH535] (first compound 2 µM, partner dose 1 µM) | – | 138 | 211 | 81.5 | – | 148 | 2320 | 998 | 63.9 | 174 | 143 | 91.5 | 201 | 46.9 | – | 42.2 | 135 | 37.3 | 257 | –
7 | C=CCn1c(=O)c2cnc(Nc3ccc(N4CCN(C)CC4)cc3)nc2n1-c1cccc(C(C)(C)O)n1 + OCCn1cc(-c2cnc3nnn(Cc4ccc5ncccc5c4)c3n2)cn1 [PF04217903] (first compound 0.02 µM, partner dose 1 µM) | – | 91.7 | 66.1 | 116 | 149 | 205 | 76 | 201 | 153 | 11.4 | 109 | 138 | 184 | 266 | – | 46.7 | 159 | 129 | – | 73.6
8 | C[C@]1(c2nc3c(C(N)=O)cccc3[nH]2)CCCN1 [Veliparib] + COc1cc2c(Oc3ccc4[nH]c(C)cc4c3F)ncnc2cc1OCCCN1CCCC1 [cediranib] (first compound 1.4 µM, partner dose 0.4 µM) | – | 47.4 | 92.3 | 115 | 109 | 105 | 154 | 86.3 | 41.2 | 147 | 23.9 | 147 | 46.3 | 91.5 | – | 67.9 | 134 | 140 | – | 45.2
9 | Cc1nc(Nc2ncc(C(=O)Nc3c(C)cccc3Cl)s2)cc(N2CCN(CCO)CC2)n1 [dasatanib] + C[C@]1(c2nc3c(C(N)=O)cccc3[nH]2)CCCN1 [Veliparib] (first compound 0.004 µM, partner dose 1.4 µM) | – | 218 | 269 | 80.4 | 73.4 | 111 | 79.2 | 104 | 144 | 140 | 115 | 114 | 87.9 | 50.6 | – | 290 | 257 | – | 62 | 200
10 | CC1(C)NC(=O)N(c2ccc([N+](=O)[O-])c(C(F)(F)F)c2)C1=O [nilutamide] + CO[C@@H]1[C@H](N(C)C(=O)c2ccccc2)C[C@H]2O[C@]1(C)n1c3ccccc3c3c4c(c5c6ccccc6n2c5c31)C(=O)NC4 [Midostaurin] (first compound 1 µM, partner dose 0.08 µM) | – | 121 | 129 | 61.1 | 74.4 | 79 | 67.8 | 79 | 122 | 166 | 132 | 114 | 96.4 | 49.6 | – | 379 | 242 | 107 | – | 397
11 | C=CCn1c(=O)c2cnc(Nc3ccc(N4CCN(C)CC4)cc3)nc2n1-c1cccc(C(C)(C)O)n1 + CN(NC(=O)CC(=O)NN(C)C(=S)c1ccccc1)C(=S)c1ccccc1 [STA4783] (first compound 0.02 µM, partner dose 0.006 µM) | – | 132 | 276 | 711 | 1570 | 801 | 71.5 | 152 | 124 | 180 | 118 | 86.3 | 141 | 121 | – | 87.3 | 10200 | 140 | – | 125
12 | Clc1ccc(Nc2nnc(Cc3ccncc3)c3ccccc23)cc1 [vatalanib] + COc1cc(Nc2ncc(F)c(Nc3ccc4c(n3)NC(=O)C(C)(C)O4)n2)cc(OC)c1OC [Tamatinib] (first compound 2 µM, partner dose 0.4 µM) | – | 93.9 | 91.5 | 116 | 318 | 121 | 136 | 93.6 | 194 | 117 | 175 | 56.1 | 121 | 31.6 | – | 112 | 133 | 111 | – | 170
13 | O=C(Nc1cccc(Cl)c1)Nc1ncc(CCNc2ncnc3ccsc23)s1 + CN(NC(=O)CC(=O)NN(C)C(=S)c1ccccc1)C(=S)c1ccccc1 [STA4783] (first compound 0.0008 µM, partner dose 0.006 µM) | – | 106 | 165 | 54.9 | 2060 | 367 | 223 | 191 | 111 | 75.7 | 152 | 145 | 202 | 127 | – | 128 | 1460 | 103 | – | 75.1
14 | CC(=O)c1c(C)c2cnc(Nc3ccc(N4CCNCC4)cn3)nc2n(C2CCCC2)c1=O [palbociclib] + O=S(=O)(c1ccccc1)N(CC(F)(F)F)c1ccc(C(O)(C(F)(F)F)C(F)(F)F)cc1 [T0901317] (first compound 0.04 µM, partner dose 1.4 µM) | – | 19.8 | 165 | 245 | 64.4 | 125 | 110 | 97.8 | 32.7 | 86.5 | 111 | 142 | 183 | 108 | – | 158 | – | – | – | –
15 | Cc1cc(N2CCOCC2)cc2[nH]c(-c3c(NC[C@@H](O)c4cccc(Cl)c4)cc[nH]c3=O)nc12 + Oc1nc(-c2ccc(C(F)(F)F)cc2)nc2c1CSCC2 [XAV939] (first compound 0.2 µM, partner dose 2 µM) | – | 142 | 85.3 | 249 | – | 98.1 | 37.9 | 88.8 | 138 | 123 | 128 | 109 | 54.3 | 196 | – | 66.9 | 360 | 92.7 | 84.7 | –
16 | Cc1nc(Nc2ncc(C(=O)Nc3c(C)cccc3Cl)s2)cc(N2CCN(CCO)CC2)n1 [dasatanib] + CN(C)S(=O)(=O)c1ccc2c(c1)/C(=C/c1cc3c([nH]1)CCCC3)C(=O)N2 [SU6656] (first compound 0.004 µM, partner dose 0.4 µM) | – | 113 | 87.7 | 391 | 64.1 | 121 | 34.3 | 96.7 | 247 | 53.5 | 76.1 | 157 | 97.1 | 61.8 | – | 211 | 68.2 | 111 | – | 79.2
17 | C#Cc1cccc(Nc2ncnc3cc(OCCOC)c(OCCOC)cc23)c1 [erlotinib] + OCCn1cc(-c2cnc3nnn(Cc4ccc5ncccc5c4)c3n2)cn1 [PF04217903] (first compound 0.8 µM, partner dose 1 µM) | – | 82.6 | 115 | 166 | 68.2 | 96.5 | 49.6 | 109 | 247 | 62.9 | 89.2 | 80.4 | 96 | 97.8 | – | 44.4 | 260 | 125 | – | 192
18 | Cn1nnc2c(C(N)=O)ncn2c1=O [temozolomide] + CCN(CC)CCCCNc1ncc2cc(-c3cc(OC)cc(OC)c3)c(NC(=O)NC(C)(C)C)nc2n1 [PD173074] (first compound 2 µM, partner dose 0.1 µM) | – | 50.3 | 115 | 140 | – | 103 | 131 | 79.2 | 106 | 138 | 149 | 193 | 244 | 247 | – | 80.6 | 164 | 113 | 81.7 | –
19 | Cc1nc(Nc2ncc(C(=O)Nc3c(C)cccc3Cl)s2)cc(N2CCN(CCO)CC2)n1 [dasatanib] + Cn1cc(/C=C2\C(=O)Nc3cccnc32)c2ccccc21 [GW441756] (first compound 0.004 µM, partner dose 0.4 µM) | – | 136 | 138 | 55.3 | – | 105 | 19.7 | 93.3 | 157 | 105 | 162 | 141 | 180 | 134 | – | 67.6 | 244 | 187 | 413 | –

Record cards, from the list above. Values in the order: cleaved PARP positive nuclei fraction (501Mel) [%]	cleaved PARP positive nuclei fraction (A101D) [%]	cleaved PARP positive nuclei fraction (A2058) [%]	cleaved PARP positive nuclei fraction (C32) [%]	cleaved PARP positive nuclei fraction (CBRC008) [%]	cleaved PARP positive nuclei fraction (CBRC014) [%]	cleaved PARP positive nuclei fraction (CBRC016) [%]	cleaved PARP positive nuclei fraction (CBRC017) [%]	cleaved PARP positive nuclei fraction (COLO792) [%]	cleaved PARP positive nuclei fraction (COLO800) [%]	cleaved PARP positive nuclei fraction (COLO829) [%]	cleaved PARP positive nuclei fraction (G361) [%]	cleaved PARP positive nuclei fraction (IPC-298) [%]	cleaved PARP positive nuclei fraction (IST-MEL1) [%]	cleaved PARP positive nuclei fraction (LB2518-MEL) [%]	cleaved PARP positive nuclei fraction (LOXIMVI) [%]	cleaved PARP positive nuclei fraction (A375) [%]	cleaved PARP positive nuclei fraction (CBRC013) [%]	cleaved PARP positive nuclei fraction (CBRC034) [%]	cleaved PARP positive nuclei fraction (MEL-HO) [%]
C=CCn1c(=O)c2cnc(Nc3ccc(N4CCN(C)CC4)cc3)nc2n1-c1cccc(C(C)(C)O)n1 + OCCn1cc(-c2cnc3nnn(Cc4ccc5ncccc5c4)c3n2)cn1 [PF04217903] (first compound 0.02 µM, partner dose 1 µM) as listed: –	91.7	66.1	116	149	205	76	201	153	11.4	109	138	184	266	–	46.7	159	129	–	73.6
Cn1nnc2c(C(N)=O)ncn2c1=O [temozolomide] + CCN(CC)CCCCNc1ncc2cc(-c3cc(OC)cc(OC)c3)c(NC(=O)NC(C)(C)C)nc2n1 [PD173074] (first compound 2 µM, partner dose 0.1 µM) as listed: –	50.3	115	140	–	103	131	79.2	106	138	149	193	244	247	–	80.6	164	113	81.7	–
